Results are given in words; binding and its absence hold for the method and conditions named. Binding seen in cells or lysates may run through a third protein. Some binding calls cover weakened binding; strength is not graded here. For some assays here: Where a sequence is shown, tags or fusion partners need not be part of it.
How the values were obtained:
[1] = biological target: T1, BAF nuclear assembly factor 1 (BANF1) (human (endogenous in NCM460 and Caco2)) (UniProt O75531); test: co-IP; lysates of NCM460 cells; IP by anti-BANF1 or anti-p65 antibody, control IgG; Protein A/G magnetic beads; western blot
T1 sequence: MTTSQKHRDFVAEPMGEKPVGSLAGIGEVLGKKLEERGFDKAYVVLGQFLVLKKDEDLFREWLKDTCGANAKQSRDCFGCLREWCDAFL

Amino acid sequences for entries named in this document (tags omitted).
UniProt Q04206: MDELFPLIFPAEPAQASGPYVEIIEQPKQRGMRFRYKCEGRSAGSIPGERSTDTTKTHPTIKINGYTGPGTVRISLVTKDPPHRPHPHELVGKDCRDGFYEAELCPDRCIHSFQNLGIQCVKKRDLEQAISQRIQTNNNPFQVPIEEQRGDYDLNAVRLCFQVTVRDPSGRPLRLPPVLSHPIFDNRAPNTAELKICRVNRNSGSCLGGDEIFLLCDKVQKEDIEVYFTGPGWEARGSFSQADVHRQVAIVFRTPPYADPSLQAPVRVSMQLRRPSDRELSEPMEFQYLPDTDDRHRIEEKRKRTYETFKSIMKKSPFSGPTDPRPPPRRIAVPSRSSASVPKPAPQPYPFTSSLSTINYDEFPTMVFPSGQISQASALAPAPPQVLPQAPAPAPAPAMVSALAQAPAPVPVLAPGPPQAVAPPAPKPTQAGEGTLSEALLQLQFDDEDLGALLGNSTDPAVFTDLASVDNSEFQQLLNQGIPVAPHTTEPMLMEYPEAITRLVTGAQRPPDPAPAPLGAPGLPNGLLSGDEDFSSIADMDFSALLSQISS

[2] = biological target: T2, FLAG-tagged TMIGD1 (transmembrane and immunoglobulin domain-containing protein 1) (UniProt Q6UXZ0); test: co-IP; lysates of NCM460 cells transfected with lentivirus overexpressing FLAG-tagged TMIGD1; IP by anti-FLAG or anti-BANF1 antibody, control IgG; antibody at 4°C overnight, Protein A/G magnetic beads; western blot
T2 sequence: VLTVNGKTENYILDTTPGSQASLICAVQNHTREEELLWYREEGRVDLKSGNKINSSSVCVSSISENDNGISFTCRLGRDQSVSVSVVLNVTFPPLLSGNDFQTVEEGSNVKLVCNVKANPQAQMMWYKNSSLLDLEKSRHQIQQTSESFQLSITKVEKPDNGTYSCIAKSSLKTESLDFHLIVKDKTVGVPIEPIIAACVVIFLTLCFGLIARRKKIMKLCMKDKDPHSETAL

p65 (from UniProt Q04206 1-551)
binding [1]: binds

B1: BAF nuclear assembly factor 1 (BANF1) (protein, UniProt O75531 1-89)
chain: MTTSQKHRDFVAEPMGEKPVGSLAGIGEVLGKKLEERGFDKAYVVLGQFLVLKKDEDLFREWLKDTCGANAKQSRDCFGCLREWCDAFL
binding [2]: binds
